The target of the assay is recombinant AAV9 vector packaging a tdTomato transgene (AAV9). As to the kind of experiment: anti-AAV Western blot of TFF fractions after complex formation with matrix and 0.6 M NaCl (0.2 micron hollow fiber filter).

Results are given in words; binding and its absence hold for the method and conditions named. A result given as binding can be weak or reduced; the word gives no strength.

B1: purification matrix having an amino acid sequence of SEQ ID NO: 172 (designed binder)
chain: MSKGPGVGVPGLGVPGVGVPGLGVPGVGVPGVGVPGLGVPGVGVPGLGVPGVGVPGVGVPGLGVPGVGVPGLGVPGVGVPGVGVPGLGVPGVGVPGLGVPGVGVPGVGVPGLGVPGVGVPGLGVPGVGVPGVGVPGLGVPGVGVPGLGVPGVGVPGVGVPGLGVPGVGVPGLGVPGVGVPGVGVPGLGVPGVGVPGLGVPGVGVPGVGVPGLGVPGVGVPGLGVPGVGVPGVGVPGLGVPGVGVPGLGVPGVGVPGVGVPGLGVPGVGVPGLGVPGVGVPGVGVPGLGVPGVGVPGLGVPGVGVPGVGVPGLGVPGVGVPGLGVPGVGVPGVGVPGLGVPGVGVPGLGVPGVGVPGVGVPGLGVPGVGVPGLGVPGVGVPGVGVPGLGVPGVGVPGLGVPGVGVPGNRPPIAIVSPQFQEISLPTTSTVIDGSQSTDDDKIVQYHWEELKGPLREEKISEDTAILKLSKLVPGNYTFSLTVVDSDGATNSTTANLTVNKAVDYPG
With B1, the binding result is “binds”.

These data come from US20230099707A1.
